Assay results from the supplement of paper PMC11438910.
The other results are listed elsewhere or left out. Only a few entries rise above the background.

Columns and labels:
Assay in all cases: fluorescence intensity of antibody binding to polysaccharide-coupled beads; higher = stronger binding
[1] = molecular target: pneumococcal polysaccharide Pn31
[2] = molecular target: pneumococcal polysaccharide Pn32A
[3] = molecular target: pneumococcal polysaccharide Pn32F
[4] = molecular target: pneumococcal polysaccharide Pn33A
[5] = molecular target: pneumococcal polysaccharide Pn33B
[6] = molecular target: pneumococcal polysaccharide Pn33C
[7] = molecular target: pneumococcal polysaccharide Pn33D
[8] = molecular target: pneumococcal polysaccharide Pn33F
[9] = molecular target: pneumococcal polysaccharide Pn34
[10] = molecular target: pneumococcal polysaccharide Pn35A
[11] = molecular target: pneumococcal polysaccharide Pn35B
[12] = molecular target: pneumococcal polysaccharide Pn35C
[13] = molecular target: pneumococcal polysaccharide Pn35F
[14] = molecular target: pneumococcal polysaccharide Pn36
[15] = molecular target: pneumococcal polysaccharide Pn37
[16] = molecular target: pneumococcal polysaccharide Pn38
[17] = molecular target: pneumococcal polysaccharide Pn39
[18] = molecular target: pneumococcal polysaccharide Pn4
[19] = molecular target: pneumococcal polysaccharide Pn40
[20] = molecular target: pneumococcal polysaccharide Pn41A
[21] = molecular target: pneumococcal polysaccharide Pn41F
[22] = molecular target: pneumococcal polysaccharide Pn42
[23] = molecular target: pneumococcal polysaccharide Pn43
[24] = antibody concentration 81.7561 ng/mL
[25] = antibody concentration 437.17 ng/mL
[26] = antibody concentration 2337.65 ng/mL
[27] = antibody concentration 12500 ng/mL
[28] = antibody concentration 0.1 ng/mL
[29] = antibody concentration 0.534724 ng/mL
[30] = antibody concentration 2.8593 ng/mL
[31] = antibody concentration 15.2894 ng/mL

B1: 4-99.3 (protein)
chain 1: QVQLQESGPGLVKPSETLSLTCAVSGYSISSGYYWGWIRQPPGKGLEYIGYISGSWGKSYYKPSLKSRVTISKDTSKNQFSLTLSSVTAADTAVYYCARRLEYVGFDVWGPGVLVTVSS
chain 2: QAAPTQPPSVSGSPGQSVTISCTGTSSDIGYYNAVSWYQQHPGKAPKLMIYEVSKRPSGVSDRFSGSKSGNTASLTISGLQAEDEADYYCSSYAGSNTYIFGSGTRLTVL
fluorescence intensity [1, 24]: 13 MFI
fluorescence intensity [1, 25]: 16.5 MFI
fluorescence intensity [1, 26]: 29 MFI
fluorescence intensity [1, 27]: 249 MFI
fluorescence intensity [2, 28]: 16 MFI
fluorescence intensity [2, 29]: 16 MFI
fluorescence intensity [2, 30]: 16.5 MFI
fluorescence intensity [2, 31]: 16 MFI
fluorescence intensity [2, 24]: 17.5 MFI
fluorescence intensity [2, 25]: 20.5 MFI
fluorescence intensity [2, 26]: 23.8 MFI
fluorescence intensity [2, 27]: 73.5 MFI
fluorescence intensity [3, 28]: 26.5 MFI
fluorescence intensity [3, 29]: 27 MFI
fluorescence intensity [3, 30]: 28 MFI
fluorescence intensity [3, 31]: 25.8 MFI
fluorescence intensity [3, 24]: 28.5 MFI
fluorescence intensity [3, 25]: 35.5 MFI
fluorescence intensity [3, 26]: 40 MFI
fluorescence intensity [3, 27]: 91.5 MFI
fluorescence intensity [4, 28]: 18.5 MFI
fluorescence intensity [4, 29]: 16.5 MFI
fluorescence intensity [4, 30]: 18 MFI
fluorescence intensity [4, 31]: 16.5 MFI
fluorescence intensity [4, 24]: 17.5 MFI
fluorescence intensity [4, 25]: 25.5 MFI
fluorescence intensity [4, 26]: 127 MFI
fluorescence intensity [4, 27]: 982 MFI
fluorescence intensity [5, 28]: 17.5 MFI
fluorescence intensity [5, 29]: 17 MFI
fluorescence intensity [5, 30]: 17 MFI
fluorescence intensity [5, 31]: 18 MFI
fluorescence intensity [5, 24]: 16.8 MFI
fluorescence intensity [5, 25]: 18 MFI
fluorescence intensity [5, 26]: 19.5 MFI
fluorescence intensity [5, 27]: 31 MFI
fluorescence intensity [6, 28]: 19.5 MFI
fluorescence intensity [6, 29]: 17.2 MFI
fluorescence intensity [6, 30]: 18.5 MFI
fluorescence intensity [6, 31]: 19.5 MFI
fluorescence intensity [6, 24]: 17.5 MFI
fluorescence intensity [6, 25]: 19.5 MFI
fluorescence intensity [6, 26]: 30 MFI
fluorescence intensity [6, 27]: 114 MFI
fluorescence intensity [7, 28]: 17.5 MFI
fluorescence intensity [7, 29]: 14.5 MFI
fluorescence intensity [7, 30]: 14 MFI
fluorescence intensity [7, 31]: 15 MFI
fluorescence intensity [7, 24]: 15.5 MFI
fluorescence intensity [7, 25]: 16.5 MFI
fluorescence intensity [7, 26]: 20 MFI
fluorescence intensity [7, 27]: 44.2 MFI
fluorescence intensity [8, 28]: 12.5 MFI
fluorescence intensity [8, 29]: 13.5 MFI
fluorescence intensity [8, 30]: 12 MFI
fluorescence intensity [8, 31]: 12 MFI
fluorescence intensity [8, 24]: 14.5 MFI
fluorescence intensity [8, 25]: 16 MFI
fluorescence intensity [8, 26]: 41.5 MFI
fluorescence intensity [8, 27]: 355 MFI
fluorescence intensity [9, 28]: 12.8 MFI
fluorescence intensity [9, 29]: 13 MFI
fluorescence intensity [9, 30]: 15 MFI
fluorescence intensity [9, 31]: 14.5 MFI
fluorescence intensity [9, 24]: 13.5 MFI
fluorescence intensity [9, 25]: 14 MFI
fluorescence intensity [9, 26]: 15 MFI
fluorescence intensity [9, 27]: 28.5 MFI
fluorescence intensity [10, 28]: 17 MFI
fluorescence intensity [10, 29]: 17 MFI
fluorescence intensity [10, 30]: 16.5 MFI
fluorescence intensity [10, 31]: 16 MFI
fluorescence intensity [10, 24]: 15.8 MFI
fluorescence intensity [10, 25]: 17 MFI
fluorescence intensity [10, 26]: 35.5 MFI
fluorescence intensity [10, 27]: 216 MFI
fluorescence intensity [11, 28]: 20.8 MFI
fluorescence intensity [11, 29]: 18.2 MFI
fluorescence intensity [11, 30]: 18.2 MFI
fluorescence intensity [11, 31]: 16 MFI
fluorescence intensity [11, 24]: 17.5 MFI
fluorescence intensity [11, 25]: 17.5 MFI
fluorescence intensity [11, 26]: 31.5 MFI
fluorescence intensity [11, 27]: 142 MFI
fluorescence intensity [12, 28]: 20 MFI
fluorescence intensity [12, 29]: 18.5 MFI
fluorescence intensity [12, 30]: 19.5 MFI
fluorescence intensity [12, 31]: 19.5 MFI
fluorescence intensity [12, 24]: 20 MFI
fluorescence intensity [12, 25]: 20 MFI
fluorescence intensity [12, 26]: 22.5 MFI
fluorescence intensity [12, 27]: 34 MFI
fluorescence intensity [13, 28]: 18.5 MFI
fluorescence intensity [13, 29]: 19.8 MFI
fluorescence intensity [13, 30]: 20 MFI
fluorescence intensity [13, 31]: 16.5 MFI
fluorescence intensity [13, 24]: 18.5 MFI
fluorescence intensity [13, 25]: 17.5 MFI
fluorescence intensity [13, 26]: 19.8 MFI
fluorescence intensity [13, 27]: 32 MFI
fluorescence intensity [14, 28]: 14.5 MFI
fluorescence intensity [14, 29]: 14.5 MFI
fluorescence intensity [14, 30]: 14.2 MFI
fluorescence intensity [14, 31]: 14.5 MFI
fluorescence intensity [14, 24]: 15 MFI
fluorescence intensity [14, 25]: 15.5 MFI
fluorescence intensity [14, 26]: 26.5 MFI
fluorescence intensity [14, 27]: 182 MFI
fluorescence intensity [15, 28]: 24 MFI
fluorescence intensity [15, 29]: 24 MFI
fluorescence intensity [15, 30]: 25.5 MFI
fluorescence intensity [15, 31]: 24.5 MFI
fluorescence intensity [15, 24]: 26 MFI
fluorescence intensity [15, 25]: 32.5 MFI
fluorescence intensity [15, 26]: 75.5 MFI
fluorescence intensity [15, 27]: 779 MFI
fluorescence intensity [16, 28]: 26 MFI
fluorescence intensity [16, 29]: 25 MFI
fluorescence intensity [16, 30]: 25 MFI
fluorescence intensity [16, 31]: 24.5 MFI
fluorescence intensity [16, 24]: 26.5 MFI
fluorescence intensity [16, 25]: 26.5 MFI
fluorescence intensity [16, 26]: 33 MFI
fluorescence intensity [16, 27]: 64.5 MFI
fluorescence intensity [17, 28]: 20 MFI
fluorescence intensity [17, 29]: 17.5 MFI
fluorescence intensity [17, 30]: 17.5 MFI
fluorescence intensity [17, 31]: 17.5 MFI
fluorescence intensity [17, 24]: 17.5 MFI
fluorescence intensity [17, 25]: 20 MFI
fluorescence intensity [17, 26]: 30 MFI
fluorescence intensity [17, 27]: 140 MFI
fluorescence intensity [18, 28]: 18 MFI
fluorescence intensity [18, 29]: 17.5 MFI
fluorescence intensity [18, 30]: 17.5 MFI
fluorescence intensity [18, 31]: 16.5 MFI
fluorescence intensity [18, 24]: 19 MFI
fluorescence intensity [18, 25]: 23 MFI
fluorescence intensity [18, 26]: 30.5 MFI
fluorescence intensity [18, 27]: 69.8 MFI
fluorescence intensity [19, 28]: 16.5 MFI
fluorescence intensity [19, 29]: 15.5 MFI
fluorescence intensity [19, 30]: 16 MFI
fluorescence intensity [19, 31]: 14.8 MFI
fluorescence intensity [19, 24]: 17 MFI
fluorescence intensity [19, 25]: 17.5 MFI
fluorescence intensity [19, 26]: 30.8 MFI
fluorescence intensity [19, 27]: 221 MFI
fluorescence intensity [20, 28]: 22 MFI
fluorescence intensity [20, 29]: 21.5 MFI
fluorescence intensity [20, 30]: 22 MFI
fluorescence intensity [20, 31]: 21.5 MFI
fluorescence intensity [20, 24]: 23.5 MFI
fluorescence intensity [20, 25]: 24 MFI
fluorescence intensity [20, 26]: 24.8 MFI
fluorescence intensity [20, 27]: 38.2 MFI
fluorescence intensity [21, 28]: 13 MFI
fluorescence intensity [21, 29]: 11.5 MFI
fluorescence intensity [21, 30]: 11.5 MFI
fluorescence intensity [21, 31]: 11 MFI
fluorescence intensity [21, 24]: 13.5 MFI
fluorescence intensity [21, 25]: 13 MFI
fluorescence intensity [21, 26]: 16 MFI
fluorescence intensity [21, 27]: 37 MFI
fluorescence intensity [22, 28]: 11 MFI
fluorescence intensity [22, 29]: 11 MFI
fluorescence intensity [22, 30]: 10.5 MFI
fluorescence intensity [22, 31]: 11 MFI
fluorescence intensity [22, 24]: 12.2 MFI
fluorescence intensity [22, 25]: 12 MFI
fluorescence intensity [22, 26]: 16 MFI
fluorescence intensity [22, 27]: 84.5 MFI
fluorescence intensity [23, 28]: 15.5 MFI
fluorescence intensity [23, 29]: 14.5 MFI
fluorescence intensity [23, 30]: 15.5 MFI
fluorescence intensity [23, 31]: 14 MFI
fluorescence intensity [23, 24]: 15.5 MFI
fluorescence intensity [23, 25]: 19.5 MFI
fluorescence intensity [23, 26]: 41.5 MFI
fluorescence intensity [23, 27]: 470 MFI
